Laboratory results published in the supplement of paper PMC5949888.
Most values lie at the floor of the assay. Slopes are relative: functional sequences can read slightly below zero.

What follows are substances tested on Saccharomyces cerevisiae PS128 hsf1 delta, HSF1(1-493) fusion (assay: growth estimate (transactivation domain function in HSF1 fusion, heat-shock survival) (a.u. (slope of normalised read count over time)); higher = stronger growth at 37°C, i.e. more transactivation activity). Conditions: library: random library.
Substance LASGSPAMLRSVYTLHSFES has a growth estimate of -0.235.
LASNAATVWIRSSEESFDGH was tested, and the growth estimate was less than -0.25.
With LASQCDS the growth estimate was less than -0.25.
Work on LASRQS yielded a growth estimate of less than -0.25.
LASSPLGGLPGPTPHEDCHR was tested, and the growth estimate was -0.245.
LASTGWVMTVEGSGSFA gave a growth estimate of less than -0.25.
LASVQACCV showed a growth estimate of less than -0.25.
Work on LATKKQCHVFR yielded a growth estimate of less than -0.25.
LATLTYAKPVQRSAGAQTWW showed a growth estimate of less than -0.25.
For LATRCNREGGE, the growth estimate was less than -0.25.
LATTPGAGPLVLDVLDT was tested, and the growth estimate was less than -0.25.
In the case of LATWNCR, the growth estimate is reported as less than -0.25.
Work on LAVRVSATGVVLHILPHGRR yielded a growth estimate of less than -0.25.
For LAWIRFEYNTAKSTLRSPTS, the growth estimate was less than -0.25.
Substance LAYRHSIAAQHGTGHFVASW has a growth estimate of less than -0.25.
Work on LAYWAGHGASGFWGVVAWSC yielded a growth estimate of less than -0.25.
Work on LCAHIL yielded a growth estimate of less than -0.25.
LCDSFIHRSWVAVT showed a growth estimate of less than -0.25.
With LCDSSASNGLLCGMIDRSYW the growth estimate was -0.25.
For LCEDLQEGSRIWNAST, the growth estimate was less than -0.25.
With LCEFLPTKGS the growth estimate was less than -0.25.
For LCEKRRLPVEWAPQSNPRST, the growth estimate was less than -0.25.
Work on LCESFRINGRGLHP yielded a growth estimate of less than -0.25.
Substance LCFYGRSLSEVSLC has a growth estimate of less than -0.25.
With LCIRSFIFDGDVNLHVRTRG the growth estimate was less than -0.25.
With LCLHPPRQRGLRSMLRAAGK the growth estimate was less than -0.25.
With LCLQIFGGISRR the growth estimate was less than -0.25.
With LCLVGHLEAGT the growth estimate was less than -0.25.
Substance LCMKASKSAQDKAPRLP has a growth estimate of less than -0.25.
With LCNHICPDVGDGSTTLILRR the growth estimate was less than -0.25.
With LCNPLIVVSNIPGDGRAIRV the growth estimate was less than -0.25.
Substance LCNVGREG has a growth estimate of less than -0.25.
LCPKVLREIVGRTPLGKWAS was tested, and the growth estimate was less than -0.25.
For LCQ, the growth estimate was less than -0.25.
LCQPEMRRVKPCQMREGQRG showed a growth estimate of less than -0.25.
In the case of LCRCCR, the growth estimate is reported as less than -0.25.
In the case of LCRENYACL, the growth estimate is reported as less than -0.25.
In the case of LCRLIVEPPHISITTLVQRH, the growth estimate is reported as -0.25.
Work on LCSAKLNMSTRGGLAACGGG yielded a growth estimate of less than -0.25.
LCSASVSHLQRSLSGEMIEW was tested, and the growth estimate was less than -0.25.
Substance LCSG has a growth estimate of less than -0.25.
Substance LCSGESIVSSL has a growth estimate of less than -0.25.
Substance LCSMQACSAR has a growth estimate of less than -0.25.
With LCTHG the growth estimate was less than -0.25.
LCVPRAADHFLGGLVEWPQL gave a growth estimate of less than -0.25.
LCWL showed a growth estimate of less than -0.25.
Work on LCWVPQGLFCSCSGGLLGKV yielded a growth estimate of less than -0.25.
For LCWYRKST, the growth estimate was less than -0.25.
With LCYGPS the growth estimate was less than -0.25.
In the case of LDACVDETPIGLVSHAVSIV, the growth estimate is reported as -0.246.
For LDCDWHPRSAKFDRGTSP, the growth estimate was less than -0.25.
Substance LDCTVARGRDRPVS has a growth estimate of less than -0.25.
With LDDIKGENIRHRARRRASAG the growth estimate was less than -0.25.
LDEHRARSQGSSTVTG gave a growth estimate of less than -0.25.
In the case of LDGAKIPVNLTGYDESERLS, the growth estimate is reported as less than -0.25.
For LDGCPVSTAEGVSAKLPSCS, the growth estimate was less than -0.25.
LDGFSPKLGLRRKTAYRPPM gave a growth estimate of less than -0.25.
With LDGLAIGAT the growth estimate was less than -0.25.
For LDGSFARRGIDC, the growth estimate was less than -0.25.
With LDHRIW the growth estimate was less than -0.25.
Work on LDIGL yielded a growth estimate of less than -0.25.
LDILYGSTQWVPTP was tested, and the growth estimate was less than -0.25.
Work on LDIPSFERGRMRAGPEARGL yielded a growth estimate of less than -0.25.
For LDIPYYSISSDYFRRAEQGR, the growth estimate was less than -0.25.
For LDIRFKNKLVNLAL, the growth estimate was less than -0.25.
In the case of LDKVII, the growth estimate is reported as less than -0.25.
For LDLGRTGLSTFASDRWTVGR, the growth estimate was less than -0.25.
Work on LDLTNDRKVGRLDS yielded a growth estimate of less than -0.25.
LDMGCTPHFGGGVTTPGTFR gave a growth estimate of less than -0.25.
LDMMLPK gave a growth estimate of less than -0.25.
Substance LDPCGIRSAPGHADMIQHSI has a growth estimate of less than -0.25.
LDPLNRGPGE showed a growth estimate of less than -0.25.
In the case of LDPLYRVNMEF, the growth estimate is reported as -0.241.
In the case of LDQAYALTQLLYTDIRELSS, the growth estimate is reported as 1.97.
Substance LDQKG has a growth estimate of less than -0.25.
With LDRGLSDTARLQRFPSSQAR the growth estimate was less than -0.25.
LDRGSDIQVPSGRGIALGTP showed a growth estimate of less than -0.25.
Substance LDRGSVTGPGFFVLNQGSRI has a growth estimate of less than -0.25.
Substance LDRTIVGTGQVALRRRDSPT has a growth estimate of less than -0.25.
Substance LDRYWY has a growth estimate of -0.181.
LDSLKMAIQ showed a growth estimate of less than -0.25.
For LDTGR, the growth estimate was less than -0.25.
LDVCMWLSNALRSFPRIKPL showed a growth estimate of less than -0.25.
Substance LDWWSRKRTLTCHFTMTGQL has a growth estimate of -0.0153.
LEAARTVIDQMYIE was tested, and the growth estimate was less than -0.25.
LEACSGRCFDPACTVGA gave a growth estimate of less than -0.25.
Substance LEASPLS has a growth estimate of less than -0.25.
Substance LEAVRCQACAVTQMRDWRAR has a growth estimate of less than -0.25.
LECWCHLASWTHIYIGNFVV was tested, and the growth estimate was less than -0.25.
With LEDFTG the growth estimate was less than -0.25.
LEEGAGSESRTLKMMLDVTG was tested, and the growth estimate was less than -0.25.
LEF showed a growth estimate of less than -0.25.
LEFYGMDRKVAGPISERIGA gave a growth estimate of less than -0.25.
For LEGCVESIPRKR, the growth estimate was less than -0.25.
LEGG was tested, and the growth estimate was less than -0.25.
LEGMRRGFLAIHGRSNPTYS showed a growth estimate of less than -0.25.
Substance LEGTSNATNLRYSL has a growth estimate of less than -0.25.
LEKERSLNAYGWLSCLGGRV was tested, and the growth estimate was -0.183.
